Source: the supplement of paper PMC6078165
± gives the standard deviation of the averaged measurements. Values are relative to the signal before dosing, not to a vehicle control; the signal also falls without drug.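 The cancer cells are triple-negative breast cancer lines of basal-like or mesenchymal-like type, grown without fibroblasts. A drop in red signal reflects loss of mitochondrial integrity, a stand-in for apoptotic death.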

How the values were obtained:
[1] = tested on: HCC1143; experiment: relative JC-1 red fluorescence (viability) vs pre-drug, monoculture (fraction); higher = more viable cancer cells; settings: coculture fibroblast: none (monoculture)
Description: (§1)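 JC-1 labelled TNBC cells grown in monoculture (density kept equal with unlabelled cancer cells) in 384-well plates in FluoroBrite medium, treated with one of 42 anticancer drugs at 0.1, 1, 10 or 100 uM. JC-1 red fluorescence (mitochondrial integrity, surrogate of apoptotic death) was read by plate reader every 8 h for 72 h. Values are normalised to each well's pre-drug value, with background from alamethicin. The stock of one drug was tenfold lower, so its dose labels may be too high. Monoculture values are repeated alongside each fibroblast plate and are averaged here.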

[2] = tested on: MDAMB436; experiment: as above; settings: coculture fibroblast: none (monoculture)
Description: as §1

O=NN(CCCl)C(=O)NCCCl [Carmustine]
relative JC-1 red fluorescence
Settings	8 h	16 h	24 h	32 h	40 h	48 h	56 h	64 h	72 h
[1], 0.1 µM	0.9073 ± 0.0038	0.863 ± 0.011	0.829 ± 0.024	0.791 ± 0.042	0.778 ± 0.064	0.77 ± 0.08	0.753 ± 0.092	0.756 ± 0.096	0.75 ± 0.1
[1], 1 µM	0.8645 ± 0.0066	0.767 ± 0.0088	0.70516 ± 0.00014	0.6542 ± 0.0059	0.6074 ± 0.0033	0.5757 ± 0.00091	0.5563 ± 0.0045	0.534 ± 0.011	0.519 ± 0.013
[1], 10 µM	0.8898 ± 0.0046	0.793 ± 0.017	0.728 ± 0.019	0.669 ± 0.02	0.609 ± 0.019	0.57 ± 0.022	0.533 ± 0.026	0.506 ± 0.03	0.486 ± 0.031
[1], 100 µM	0.836 ± 0.0054	0.778 ± 0.0099	0.713 ± 0.014	0.675 ± 0.016	0.631 ± 0.014	0.611 ± 0.015	0.589 ± 0.025	0.579 ± 0.029	0.578 ± 0.025
[2], 0.1 µM	0.831 ± 0.0025	0.7314 ± 0.0044	0.71 ± 0.0089	0.648 ± 0.0077	0.637 ± 0.0081	0.6171 ± 0.004	0.607 ± 0.0066	0.601 ± 0.0063	0.6034 ± 0.0036
[2], 1 µM	0.7986 ± 0.005	0.7753 ± 0.0073	0.805 ± 0.012	0.759 ± 0.013	0.7819 ± 0.0018	0.781 ± 0.015	0.785 ± 0.014	0.795 ± 0.021	0.805 ± 0.018
[2], 10 µM	0.8623 ± 0.0035	0.76 ± 0.008	0.73819 ± 0.00066	0.6834 ± 0.0046	0.66532 ± 0.00025	0.646 ± 0.0079	0.6309 ± 0.00066	0.6201 ± 0.0047	0.621 ± 0.0083
[2], 100 µM	0.771 ± 0.011	0.8134 ± 0.0014	0.8472 ± 0.0017	0.8159 ± 0.0032	0.8364 ± 0.0036	0.8508 ± 0.0035	0.858 ± 0.0019	0.8804 ± 0.0037	0.9086 ± 0.0013

Nc1ncn([C@@H]2O[C@H](CO)[C@@H](O)[C@H]2O)c(=O)n1 [Azacitidine]
relative JC-1 red fluorescence
Settings	8 h	16 h	24 h	32 h	40 h	48 h	56 h	64 h	72 h
[1], 0.1 µM	0.831 ± 0.018	0.773 ± 0.019	0.716 ± 0.025	0.667 ± 0.02	0.62 ± 0.019	0.606 ± 0.019	0.586 ± 0.023	0.582 ± 0.015	0.581 ± 0.019
[1], 1 µM	0.8881 ± 0.0048	0.8034 ± 0.0066	0.7493 ± 0.0073	0.711 ± 0.0089	0.68 ± 0.021	0.664 ± 0.021	0.656 ± 0.018	0.654 ± 0.019	0.655 ± 0.02
[1], 10 µM	0.873 ± 0.037	0.7969 ± 0.0012	0.773 ± 0.017	0.722 ± 0.021	0.691 ± 0.023	0.657 ± 0.023	0.645 ± 0.023	0.63 ± 0.027	0.624 ± 0.03
[1], 100 µM	0.872 ± 0.024	0.791 ± 0.026	0.742 ± 0.025	0.707 ± 0.0082	0.671 ± 0.015	0.643 ± 0.0097	0.619 ± 0.0084	0.605 ± 0.0072	0.5889 ± 0.0051
[2], 0.1 µM	0.859 ± 0.034	0.8881 ± 0.0062	0.9716 ± 0.0067	0.9908 ± 0.0021	0.871 ± 0.013	0.887 ± 0.039	0.792 ± 0.01	0.835 ± 0.047	0.798 ± 0.11
[2], 1 µM	0.855 ± 0.008	0.7273 ± 0.0024	0.749 ± 0.013	0.703 ± 0.013	0.694 ± 0.021	0.683 ± 0.025	0.686 ± 0.029	0.692 ± 0.034	0.694 ± 0.04
[2], 10 µM	0.874 ± 0.027	0.79 ± 0.019	0.823 ± 0.045	0.785 ± 0.054	0.792 ± 0.076	0.798 ± 0.082	0.807 ± 0.087	0.808 ± 0.089	0.827 ± 0.092
[2], 100 µM	0.8686 ± 0.0073	0.762 ± 0.016	0.7901 ± 0.004	0.7531 ± 0.0074	0.717 ± 0.013	0.704 ± 0.02	0.703 ± 0.023	0.695 ± 0.028	0.691 ± 0.029
